One assay has as its target T1, IFT122 (human) (UniProt Q9HBG6).
T1 sequence: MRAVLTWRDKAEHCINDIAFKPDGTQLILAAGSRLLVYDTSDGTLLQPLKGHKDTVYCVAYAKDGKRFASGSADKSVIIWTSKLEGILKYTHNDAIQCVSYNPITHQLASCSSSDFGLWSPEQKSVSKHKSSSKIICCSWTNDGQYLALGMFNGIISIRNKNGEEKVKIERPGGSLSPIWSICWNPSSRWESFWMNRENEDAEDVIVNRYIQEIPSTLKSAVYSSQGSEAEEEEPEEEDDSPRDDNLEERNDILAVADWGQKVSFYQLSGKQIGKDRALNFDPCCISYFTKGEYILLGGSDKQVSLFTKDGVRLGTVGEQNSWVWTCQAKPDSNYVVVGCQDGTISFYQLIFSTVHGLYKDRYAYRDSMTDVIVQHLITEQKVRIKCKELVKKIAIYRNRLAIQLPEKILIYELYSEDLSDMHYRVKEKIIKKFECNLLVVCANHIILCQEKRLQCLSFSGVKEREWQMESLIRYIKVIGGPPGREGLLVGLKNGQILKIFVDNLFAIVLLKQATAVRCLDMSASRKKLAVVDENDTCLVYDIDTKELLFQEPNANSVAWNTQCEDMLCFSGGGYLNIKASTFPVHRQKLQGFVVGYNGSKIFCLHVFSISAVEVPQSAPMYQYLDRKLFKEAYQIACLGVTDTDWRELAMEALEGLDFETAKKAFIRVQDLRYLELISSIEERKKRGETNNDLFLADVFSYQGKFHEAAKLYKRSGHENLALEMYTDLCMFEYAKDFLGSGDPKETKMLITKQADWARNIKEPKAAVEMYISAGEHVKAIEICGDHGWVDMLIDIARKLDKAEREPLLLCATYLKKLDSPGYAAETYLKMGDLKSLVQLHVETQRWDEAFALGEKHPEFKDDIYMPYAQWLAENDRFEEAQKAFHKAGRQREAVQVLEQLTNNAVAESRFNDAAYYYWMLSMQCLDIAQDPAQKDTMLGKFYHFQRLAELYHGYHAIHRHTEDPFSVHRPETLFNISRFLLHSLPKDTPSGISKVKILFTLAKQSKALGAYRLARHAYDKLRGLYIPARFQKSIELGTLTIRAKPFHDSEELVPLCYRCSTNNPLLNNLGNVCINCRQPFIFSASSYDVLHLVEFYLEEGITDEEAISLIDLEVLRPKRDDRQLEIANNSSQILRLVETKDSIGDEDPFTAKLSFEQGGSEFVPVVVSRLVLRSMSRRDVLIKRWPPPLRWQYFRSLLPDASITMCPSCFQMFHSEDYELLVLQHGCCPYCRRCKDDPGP
Put plainly: affinity purification with mass spectrometry; SF-TAP-tagged bait overexpressed in HEK293T; lysis in 0.5% NP-40 in TBS (30 mM Tris-HCl pH 7.4, 150 mM NaCl); two steps at 4 °C: Strep-Tactin superflow (desthiobiotin elution), then anti-FLAG M2 agarose (FLAG peptide elution); LC-MS/MS; interactions scored by socioaffinity.

By UniProt entry, the sequences of proteins in these tests, tags left out.
UniProt Q9Y266: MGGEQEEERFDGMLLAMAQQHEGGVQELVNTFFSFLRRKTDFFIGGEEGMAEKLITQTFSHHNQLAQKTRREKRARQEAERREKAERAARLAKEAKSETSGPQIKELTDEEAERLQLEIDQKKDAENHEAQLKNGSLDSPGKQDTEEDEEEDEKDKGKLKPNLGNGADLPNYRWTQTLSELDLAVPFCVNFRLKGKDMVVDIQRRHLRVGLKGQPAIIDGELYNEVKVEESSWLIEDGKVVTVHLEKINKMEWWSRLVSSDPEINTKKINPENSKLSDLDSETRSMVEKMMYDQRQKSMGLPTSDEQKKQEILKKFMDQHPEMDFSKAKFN

The target of another assay is T2, DCAF7 (human) (UniProt P61962).
T2 sequence: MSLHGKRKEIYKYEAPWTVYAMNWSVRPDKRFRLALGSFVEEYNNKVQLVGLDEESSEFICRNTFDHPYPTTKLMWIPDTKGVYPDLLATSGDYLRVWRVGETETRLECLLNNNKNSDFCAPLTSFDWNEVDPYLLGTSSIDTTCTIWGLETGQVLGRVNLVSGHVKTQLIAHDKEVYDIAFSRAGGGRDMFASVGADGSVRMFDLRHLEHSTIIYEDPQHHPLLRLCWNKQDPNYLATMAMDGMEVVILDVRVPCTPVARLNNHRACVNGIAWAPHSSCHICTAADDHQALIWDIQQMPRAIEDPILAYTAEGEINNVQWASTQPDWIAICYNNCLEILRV
Described as above.

The values that follow come from publication PMC4869170.

These are yes or no findings as the source states them, for the method shown. In cells and extracts the contact can be indirect. A yes stands for co-enrichment or nearness to the bait. Other partners may have been found. For some assays here: A no says only that the protein was not detected with the bait.

For NUDC (from UniProt Q9Y266 1-331), the binding entry is “binds” in the assay with IFT122 (human) and “no binding” with DCAF7 (human).
